Reference: patent US20230059107A1, “STABLE TOPICAL COMPOSITIONS OF FENOLDOPAM” (TARO PHARMACEUTICAL INDUSTRIES LTD., priority 2019, published 2023)
For at least one compound, name, drawing or mass did not settle the structure.

System: psoriatic xenotransplants (normal human skin grafted, psoriatic patient T-cell injected)
Assay: Human skin xenotransplant model of psoriasis in beige-SCID mice: histological evaluation and epidermal thickness
Type: in vivo
Experimental: The efficacy of the topical stable Fenoldopam compositions developed according to the current disclosure for the treatment of psoriasis is evaluated in a human skin xenotransplant model in mice. Human skin xenotransplant models are optimally suited for performing preclinical assays that explore novel anti-psoriatic agents/treatment strategies before initiating clinical trials. The purpose of this study is to evaluate the effectiveness of Fenoldopam mesylate formulations on the histological parameters of psoriasis in the human T-cell-driven model of psoriasis.
The patients included in the study have classic plaque psoriasis, and were not treated for the disease. Normal skin from one healthy volunteer is obtained for grafting.
Healthy human skin pieces with a width of 0.4 mm and surface area of 1.5×1.5 cm are provided from residual skin of routine plastic surgery procedures from the Plastic Surgery Department of the Rambam Health Care Campus, Haifa, Israel. In addition, 20 mL blood samples were taken from the psoriatic patients.
The normal healthy human donor skin is transplanted onto the Beige-severe combined immuno-deficient mice (SCID) (weight ˜20 g).
The mice are divided into several treatment groups. Mice of each group receive activated allogeneic T-cells expressing high levels of NK cells receptors from the psoriatic donor.
Peripheral Blood Mononuclear Cells (PBMCs) from the psoriatic patients' blood are isolated and cultured in the presence of a high dose of IL-2 (100 U/mL of media) for 14 days to activate allogeneic T-cells expressing high levels of NK cells receptors.
Four weeks following the engraftment, each mouse is injected with 1×10^7 activated allogeneic IL2-enriched PBMCS from psoriatic patients (1×10^7 cells injected/mouse). Cells from different psoriasis patients are distributed equally between treatment groups. […]
Fourteen days after starting the treatment (four weeks following the injections), blood samples are taken and the skin is harvested. The grafts are analyzed histologically and immunohistochemically for psoriatic parameters. […]

[1] = topical bid, day 14 until day 28 post T-cells injection

## C[C@@H]1C[C@H]2[C@@H]3CCC4=CC(=O)C=C[C@]4(C)[C@@]3(F)[C@@H](O)C[C@]2(C)[C@@]1(O)C(=O)CO [Dexamethasone]
hyperkeratosis, parakeratosis, acanthosis, elongation of rete ridges, dense mononuclear infiltrate
  typical psoriatic features on histology: absent
[1]
  Complete Recovery (grafts/total): ⅚
  Partial Recovery (grafts/total): ⅙
